Among the data in PMC12781872 are binding values, retold here.

The chains behind the UniProt entries cited, without tags or fusion partners. Where a name states a change or a piece, a line headed by the entry shows the natural chain unless it says otherwise.
UniProt P9WGZ1: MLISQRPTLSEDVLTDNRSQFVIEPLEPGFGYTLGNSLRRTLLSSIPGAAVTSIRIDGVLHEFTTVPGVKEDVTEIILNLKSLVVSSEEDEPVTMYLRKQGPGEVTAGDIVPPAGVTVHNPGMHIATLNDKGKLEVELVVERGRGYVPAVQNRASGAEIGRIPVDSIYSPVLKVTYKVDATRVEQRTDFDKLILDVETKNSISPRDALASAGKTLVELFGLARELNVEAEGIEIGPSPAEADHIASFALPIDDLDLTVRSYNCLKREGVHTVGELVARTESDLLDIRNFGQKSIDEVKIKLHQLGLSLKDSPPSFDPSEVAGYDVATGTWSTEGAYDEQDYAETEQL
UniProt P9WGI1: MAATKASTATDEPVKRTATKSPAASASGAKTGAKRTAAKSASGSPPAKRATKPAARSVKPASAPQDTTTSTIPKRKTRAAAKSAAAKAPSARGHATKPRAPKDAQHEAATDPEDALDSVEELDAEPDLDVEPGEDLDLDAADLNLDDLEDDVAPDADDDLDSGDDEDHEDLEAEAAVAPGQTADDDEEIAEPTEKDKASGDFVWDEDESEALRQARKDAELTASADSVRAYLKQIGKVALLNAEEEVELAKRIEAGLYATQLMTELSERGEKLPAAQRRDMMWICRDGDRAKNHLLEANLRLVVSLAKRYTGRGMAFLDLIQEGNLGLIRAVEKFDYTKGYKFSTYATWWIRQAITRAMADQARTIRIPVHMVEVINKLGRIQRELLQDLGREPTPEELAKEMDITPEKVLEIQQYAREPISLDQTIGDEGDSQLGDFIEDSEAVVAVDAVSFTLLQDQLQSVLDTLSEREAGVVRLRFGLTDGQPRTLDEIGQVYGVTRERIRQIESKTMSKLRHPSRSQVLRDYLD
UniProt P9WHJ5: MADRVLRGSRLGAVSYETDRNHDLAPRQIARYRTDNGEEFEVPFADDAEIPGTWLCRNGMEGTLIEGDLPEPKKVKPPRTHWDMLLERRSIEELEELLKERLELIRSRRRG

No constants are given. Whether binding was seen depends on the method and setting. Some results given as binding are weak or reduced against the parent protein; the word gives no strength.

Test [1] concerns the target Mycobacterium tuberculosis RNA polymerase core (α2ββ'ω), wildtype (Mycobacterium tuberculosis) (UniProt P9WGZ1). In words: native gel or EMSA; both purified.
Test [2] deals with Mtb RNAP-σ^A holoenzyme (α2ββ'ω σ^A) (Mycobacterium tuberculosis) (UniProt P9WGZ1). Briefly: native gel or EMSA; both purified. Background: In EMSA bound probe runs differently from free probe, usually more slowly.

On to “Alexafluor-488 labelled Mtb σ^A (from UniProt P9WGI1 1-528)”, for which, in test [1], the binding entry was “binds”.
For the substance Mtb RbpA (from UniProt P9WHJ5 1-111), in test [2], the binding entry is recorded as “binds”.
